Patent US6527981B1, “Azole/amine oxide preservatives” (Lonza Inc., priority 1999, dated 2003)

Assay: corrosivity on low carbon steel coupon
Conditions: room temperature, 1% by weight

Didecyldimethyl ammonium carbonate [didecyl dimethyl ammonium carbonate]
No Corrosion: Observation after 14 Days | Observation after 24 Days | Observation after 24 hours
